No constants are given. Whether binding was seen depends on the method and setting. Binding calls can cover weak binding; strength is not graded here. Where a sequence is shown, tags or fusion partners need not be part of it. For some assays here: Binding seen in cells or lysates may run through a third protein.

The target of test [1] is T1, Caf1 (StrepII-tagged, recombinant, S. pombe) (S. pombe) (UniProt O74856).
T1 sequence: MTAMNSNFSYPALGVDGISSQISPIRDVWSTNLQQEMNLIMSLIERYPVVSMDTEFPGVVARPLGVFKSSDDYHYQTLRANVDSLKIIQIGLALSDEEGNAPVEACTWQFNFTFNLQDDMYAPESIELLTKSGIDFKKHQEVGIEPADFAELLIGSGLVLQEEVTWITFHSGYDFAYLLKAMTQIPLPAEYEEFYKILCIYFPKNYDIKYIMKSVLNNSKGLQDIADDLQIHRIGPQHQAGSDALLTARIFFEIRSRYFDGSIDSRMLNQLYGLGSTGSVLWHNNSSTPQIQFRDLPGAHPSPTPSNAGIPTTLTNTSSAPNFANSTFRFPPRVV
In words: SEC-MALS; purified recombinant Ccr4-Not complex (co-expressed in Sf9); monodisperse; both purified.

For test [2], the target named is T1, Caf1 (StrepII-tagged, recombinant, S. pombe) (S. pombe). In words: co-purification (Strep-Tactin affinity, anion exchange, size exclusion chromatography); subunits co-expressed from a single baculovirus in Sf9 cells; captured by the StrepII tag on Caf1; HEPES pH 8.0, 150 mM NaCl, 2 mM Mg(OAc)2; SDS-PAGE of the purified complex.

As for Not4 (recombinant, S. pombe), the binding result in test [1] and in test [2] was “binds” each time.

The values are drawn from paper PMC5120349, “Reconstitution of Targeted Deadenylation by the Ccr4-Not Complex and the YTH Domain Protein Mmi1”.
